Test system: XA binding sites in the rat brain
Assay: [3H]-XA quantitative autoradiography on rat brain slices
Settings: for Density of sites: 3 µM [3H]-XA

**Q.** For `O=C(O)c1cc(O)c2cccc(O)c2n1` [XA, Xanthurenic acid], which Density of sites (Accumbens nucleus lat. part) is on record?
**A.** 247.3±12.8 fmoles/mg equivalent tissue

**Q.** What about the Density of sites (Caudate nucleus lat. part) of the same compound?
**A.** 252.0±4.0 fmoles/mg equivalent tissue

**Q.** And the Density of sites (Central amygdaloïd nucleus)?
**A.** 249.4±5.6 fmoles/mg equivalent tissue

**Q.** What about the Density of sites (Cerebellar lobules) of the same compound?
**A.** 226.0±7.6 fmoles/mg equivalent tissue

**Q.** What about the Density of sites (Cingulate cortex ant. part) of the same compound?
**A.** 219.7±6.4 fmoles/mg equivalent tissue

**Q.** What about the Density of sites (Dorsal hippocampus) of the same compound?
**A.** 268.5±5.3 fmoles/mg equivalent tissue

**Q.** And the Density of sites (Dorsal raphe nucleus (B7))?
**A.** 94.1±7.7 fmoles/mg equivalent tissue

**Q.** What about the Density of sites (Dorsomedial hypothalamus) of the same compound?
**A.** 220.7±9.5 fmoles/mg equivalent tissue

**Q.** What about the Density of sites (Globus pallidus) of the same compound?
**A.** 183.5±8.7 fmoles/mg equivalent tissue

**Q.** And the Density of sites (Interpeduncular nucleus)?
**A.** 106.8±2.2 fmoles/mg equivalent tissue

**Q.** What about the Density of sites (Lateral septal nucleus) of the same compound?
**A.** 208.9±7.2 fmoles/mg equivalent tissue

**Q.** What about the Density of sites (Medial septal nucleus) of the same compound?
**A.** 149.4±15.1 fmoles/mg equivalent tissue

**Q.** And the Density of sites (Median raphe nucleus (B8))?
**A.** 70.6±2.2 fmoles/mg equivalent tissue

**Q.** What about the Density of sites (Mediodorsal thalamic nucleus) of the same compound?
**A.** 203.7±5.1 fmoles/mg equivalent tissue

**Q.** And the Density of sites (Medulla oblongata)?
**A.** 162.2±6.6 fmoles/mg equivalent tissue

**Q.** And the Density of sites (Occipital cortex)?
**A.** 160.0±37.8 fmoles/mg equivalent tissue

**Q.** And the Density of sites (Olfactory tracts)?
**A.** 221.2±10.6 fmoles/mg equivalent tissue

**Q.** And the Density of sites (Parietal cortex)?
**A.** 228.2±3.0 fmoles/mg equivalent tissue

**Q.** What about the Density of sites (Periacqueductal gray matter) of the same compound?
**A.** 94.1±5.2 fmoles/mg equivalent tissue

**Q.** And the Density of sites (Post. medial thalamic nucleus)?
**A.** 220.9±9.0 fmoles/mg equivalent tissue

**Q.** What about the Density of sites (Prefrontal cortex) of the same compound?
**A.** 219.7±14.0 fmoles/mg equivalent tissue

**Q.** And the Density of sites (Pyriform cortex)?
**A.** 233.5±11.9 fmoles/mg equivalent tissue

**Q.** And the Density of sites (Substantia nigra (A9))?
**A.** 104.6±1.8 fmoles/mg equivalent tissue

**Q.** And the Density of sites (Temporal cortex)?
**A.** 82.4±6.8 fmoles/mg equivalent tissue

**Q.** What about the Density of sites (Ventral hippocampus) of the same compound?
**A.** 110.0±2.2 fmoles/mg equivalent tissue

**Q.** And the Density of sites (Ventral tegmental area (A10))?
**A.** 89.8±5.6 fmoles/mg equivalent tissue

**Q.** What about the “density of XA binding sites in the richest regions” value (dorsal hippocampus and caudate nucleus) of the same compound?
**A.** about 250 fmoles of sites per mg tissue

Reference: publication PMC3491036 (PLoS ONE, 2012)
